Results are given in words; binding and its absence hold for the method and conditions named. In cells and extracts the contact can be indirect. Some binding calls cover weakened binding; strength is not graded here.
T1: Ubiquitin-specific protease 6 N-terminal-like protein (USP6NL) (human (endogenous in HCT116)) (UniProt Q92738)
T1 sequence: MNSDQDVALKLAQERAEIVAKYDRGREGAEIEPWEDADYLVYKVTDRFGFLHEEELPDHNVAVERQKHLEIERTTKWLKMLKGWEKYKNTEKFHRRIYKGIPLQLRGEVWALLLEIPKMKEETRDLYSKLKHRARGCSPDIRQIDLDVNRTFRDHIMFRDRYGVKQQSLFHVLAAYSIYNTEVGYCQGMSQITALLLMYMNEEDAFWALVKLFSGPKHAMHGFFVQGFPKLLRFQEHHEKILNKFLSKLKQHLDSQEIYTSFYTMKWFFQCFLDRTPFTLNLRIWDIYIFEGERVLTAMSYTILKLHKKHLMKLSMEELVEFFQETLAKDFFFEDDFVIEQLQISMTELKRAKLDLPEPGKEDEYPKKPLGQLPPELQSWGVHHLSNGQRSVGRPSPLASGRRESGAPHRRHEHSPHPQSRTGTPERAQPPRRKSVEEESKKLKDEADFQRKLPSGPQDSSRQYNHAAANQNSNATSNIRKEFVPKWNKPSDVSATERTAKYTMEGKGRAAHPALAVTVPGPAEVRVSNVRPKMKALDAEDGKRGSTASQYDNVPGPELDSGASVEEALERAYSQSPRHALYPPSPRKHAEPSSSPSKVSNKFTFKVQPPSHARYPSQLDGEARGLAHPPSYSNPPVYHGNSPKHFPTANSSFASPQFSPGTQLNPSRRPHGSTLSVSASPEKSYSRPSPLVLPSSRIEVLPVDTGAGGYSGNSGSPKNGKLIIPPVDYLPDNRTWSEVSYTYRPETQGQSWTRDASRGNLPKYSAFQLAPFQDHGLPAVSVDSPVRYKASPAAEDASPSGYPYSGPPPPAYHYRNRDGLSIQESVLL

Amino acid sequences for entries named in this document (tags omitted).
UniProt P35222: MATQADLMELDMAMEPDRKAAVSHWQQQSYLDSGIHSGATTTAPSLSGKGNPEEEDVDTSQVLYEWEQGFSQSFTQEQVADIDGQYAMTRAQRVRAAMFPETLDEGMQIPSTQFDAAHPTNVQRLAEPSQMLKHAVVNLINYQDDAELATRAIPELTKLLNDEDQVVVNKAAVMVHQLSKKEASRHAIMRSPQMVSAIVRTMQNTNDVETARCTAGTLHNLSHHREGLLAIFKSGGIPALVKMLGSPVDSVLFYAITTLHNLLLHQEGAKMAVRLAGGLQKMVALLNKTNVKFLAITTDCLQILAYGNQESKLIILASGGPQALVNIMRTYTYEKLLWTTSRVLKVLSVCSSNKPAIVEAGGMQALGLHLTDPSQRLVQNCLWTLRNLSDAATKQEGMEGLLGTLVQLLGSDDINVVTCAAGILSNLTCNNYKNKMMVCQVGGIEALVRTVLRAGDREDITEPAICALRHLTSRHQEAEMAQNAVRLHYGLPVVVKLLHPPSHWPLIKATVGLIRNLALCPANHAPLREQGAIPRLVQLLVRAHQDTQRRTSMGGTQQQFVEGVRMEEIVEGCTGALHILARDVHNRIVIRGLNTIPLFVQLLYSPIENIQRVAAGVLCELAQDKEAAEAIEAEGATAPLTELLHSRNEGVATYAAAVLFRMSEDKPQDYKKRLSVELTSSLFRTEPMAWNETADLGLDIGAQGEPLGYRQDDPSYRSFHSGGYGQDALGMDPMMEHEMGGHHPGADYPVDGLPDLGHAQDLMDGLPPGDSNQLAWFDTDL


Columns and labels:
[1] = molecular target: T1, Ubiquitin-specific protease 6 N-terminal-like protein (USP6NL) (human (endogenous in HCT116)); experiment: co-IP; 100 μg total protein of the lysis supernatant of HCT116 cells transfected with siUSP6NL; protein G-Agarose beads; immunoprecipitated with anti-USP6NL, anti-β-catenin or control IgG overnight at 4 °C; immunoblot for USP6NL and β-catenin
[2] = molecular target: β-catenin (human (endogenous in HCT116)) (UniProt P35222); experiment: as above

binding [1] | binding [2] | Molecule
binds | – | β-catenin (from UniProt P35222 1-781)
– | binds | Ubiquitin-specific protease 6 N-terminal-like protein (USP6NL) (protein, UniProt Q92738 1-828) MNSDQDVALKLAQERAEIVAKYDRGREGAEIEPWEDADYLVYKVTDRFGFLHEEELPDHNVAVERQKHLEIERTTKWLKMLKGWEKYKNTEKFHRRIYKGIPLQLRGEVWALLLEIPKMKEETRDLYSKLKHRARGCSPDIRQIDLDVNRTFRDHIMFRDRYGVKQQSLFHVLAAYSIYNTEVGYCQGMSQITALLLMYMNEEDAFWALVKLFSGPKHAMHGFFVQGFPKLLRFQEHHEKILNKFLSKLKQHLDSQEIYTSFYTMKWFFQCFLDRTPFTLNLRIWDIYIFEGERVLTAMSYTILKLHKKHLMKLSMEELVEFFQETLAKDFFFEDDFVIEQLQISMTELKRAKLDLPEPGKEDEYPKKPLGQLPPELQSWGVHHLSNGQRSVGRPSPLASGRRESGAPHRRHEHSPHPQSRTGTPERAQPPRRKSVEEESKKLKDEADFQRKLPSGPQDSSRQYNHAAANQNSNATSNIRKEFVPKWNKPSDVSATERTAKYTMEGKGRAAHPALAVTVPGPAEVRVSNVRPKMKALDAEDGKRGSTASQYDNVPGPELDSGASVEEALERAYSQSPRHALYPPSPRKHAEPSSSPSKVSNKFTFKVQPPSHARYPSQLDGEARGLAHPPSYSNPPVYHGNSPKHFPTANSSFASPQFSPGTQLNPSRRPHGSTLSVSASPEKSYSRPSPLVLPSSRIEVLPVDTGAGGYSGNSGSPKNGKLIIPPVDYLPDNRTWSEVSYTYRPETQGQSWTRDASRGNLPKYSAFQLAPFQDHGLPAVSVDSPVRYKASPAAEDASPSGYPYSGPPPPAYHYRNRDGLSIQESVLL

Source: PMC6469084
